For two substances, binding results are on record in publication PMC5483951.

Chains of the proteins cited; added tags and fusions are not shown.
UniProt O75494: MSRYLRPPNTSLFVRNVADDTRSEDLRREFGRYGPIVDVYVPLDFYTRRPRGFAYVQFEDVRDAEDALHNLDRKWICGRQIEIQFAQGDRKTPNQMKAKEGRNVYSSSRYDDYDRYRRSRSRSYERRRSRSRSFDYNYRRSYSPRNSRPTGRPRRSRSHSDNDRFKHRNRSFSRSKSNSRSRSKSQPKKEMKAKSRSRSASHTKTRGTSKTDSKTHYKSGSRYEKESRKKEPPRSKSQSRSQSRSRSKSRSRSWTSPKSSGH

Experiment [1] concerns the target hnRNP K (human (endogenous in 293)) (UniProt P61978). The experiment can be described thus: co-IP; endogenous SRSF10 and endogenous hnRNP F, H and K of 293 cells (Figures S2B-S2E, not shown); which protein was precipitated is not given.
In experiment [2] the target is T1, hnRNP F (human (endogenous in 293)) (UniProt P52597).
T1 sequence: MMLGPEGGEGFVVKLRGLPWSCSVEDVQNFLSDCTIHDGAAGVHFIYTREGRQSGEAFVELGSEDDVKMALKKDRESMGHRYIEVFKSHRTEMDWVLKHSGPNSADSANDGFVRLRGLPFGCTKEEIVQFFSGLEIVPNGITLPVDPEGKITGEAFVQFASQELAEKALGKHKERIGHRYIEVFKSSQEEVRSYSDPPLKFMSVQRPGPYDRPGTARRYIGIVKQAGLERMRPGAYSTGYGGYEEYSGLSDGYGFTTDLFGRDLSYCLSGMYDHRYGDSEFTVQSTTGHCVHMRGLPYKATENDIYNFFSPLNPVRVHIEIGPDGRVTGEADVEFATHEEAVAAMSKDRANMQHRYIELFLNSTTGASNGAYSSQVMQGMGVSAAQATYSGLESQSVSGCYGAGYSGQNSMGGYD
Described as above.

Experiment [3] has as its target T1, hnRNP F (human (endogenous in 293)). The experiment can be described thus: co-IP; as a1, extracts of cells treated with oxaliplatin; anti-hnRNP F and anti-hnRNP H immunoprecipitates blotted with anti-FLAG.
Experiment [4] shares this target. Described as above. The source holds these as a separate data set.
Experiment [5] addresses hnRNP K (human (endogenous in 293)) (UniProt P61978). The experiment can be described thus: co-IP; extracts of 293 cells expressing FLAG-SRSF10, RS1-FLAG, RS2-FLAG or RS1-ΔΔ-FLAG, lysed in NET-2 buffer (50 mM Tris-HCl pH 7.4, 150 mM NaCl, 0.05% NP-40), treated with RNase A; anti-hnRNP F, H or K antibodies on protein G magnetic beads, overnight at 4°C; blot with anti-FLAG; cells treated or not with oxaliplatin.

For experiment [6], the target named is T1, hnRNP F (human (endogenous in 293)). The experiment is described as above.

These are yes or no findings as the source states them, for the method shown. In cells and extracts the contact can be indirect. Some binding calls cover weakened binding; strength is not graded here.

Regarding “endogenous SRSF10 (from UniProt O75494 1-262)”, the binding result in experiment [1] and in experiment [2] was “binds” each time.

For FLAG-SRSF10 (from UniProt O75494 1-262), the binding entry was “binds weakly” in experiment [3], “no binding (condition: cells treated with oxaliplatin)” in experiment [4], “binds” in experiment [5] and “binds” in experiment [6].
